{"source": "PubChem BioAssay AID540276", "about": "(National Center for Advancing Translational Sciences (NCATS), 2011)", "note": "The campaign covered roughly 300,000 compounds. About 5,400 (1.8%) were called active. Inconclusive results, whose numbers are uncertain, are shown with a selection of clear calls. Calls come from the whole dose curve; tested in HEK293 cells. A potency beside an inconclusive call is a rough fit, not a confirmed value. % is set by controls: 0 for no effect and ±100 for the full control effect; potency is the fitted concentration of half-maximal effect.", "data": [{"assay": "qHTS for inhibitors of binding or entry into cells for Marburg Virus", "conditions": "Marburg virus pseudotyped entry inhibition, cell reporter; activity change, negative = inhibition: at 37.8 µM (top of the series) unless noted", "values": [{"smiles": "CC1(C)CC(=O)C2=C(C1)N(Cc1ccco1)C(=O)[C@]2(NC(=O)c1cccnc1)C(F)(F)F", "Potency": "inconclusive: 0.058 µM [inhibitor, full curve, poor fit]"}, {"smiles": "CC1Cc2ccccc2N1C(=O)C1CCCN(S(=O)(=O)c2cccc3nsnc23)C1", "note": "(stereo not drawn)", "Potency": "inconclusive: 22.4 µM [inhibitor, single point]"}, {"smiles": "CCc1csc(CCNC(=O)C2CCC(=O)N(CCc3cccc(F)c3)C2)n1", "note": "(stereo not drawn)", "activity change, negative = inhibition": "inactive: 8.4%"}, {"smiles": "Cc1cc(C)nc(NS(=O)(=O)c2ccc(N3Cc4ccccc4C3=O)cc2)n1", "activity change, negative = inhibition": "inactive: 4.67%"}, {"smiles": "O=S1(=O)c2cccc(Cl)c2OC[C@H](c2ccccc2)N1Cc1ccc(F)cc1", "Potency": "inconclusive: 5.6 µM [inhibitor, full curve, poor fit]"}, {"smiles": "CC(=O)N1CCc2[nH]c3ccccc3c2C1", "activity change, negative = inhibition": "inactive: 18.1%"}, {"smiles": "CCOC(=O)c1cc2c(C)n(-c3ccc(C)cc3)c(C)c2ccc1=O", "Potency": "active: 25.9 µM"}, {"smiles": "CCOc1ccc(/C=N\\NC(=O)c2c(C)nc3cc(C)ccn23)cc1", "Potency": "inconclusive: 12.6 µM [inhibitor, partial curve, poor fit]"}, {"smiles": "COc1ccc(C(C(=O)NC2CCCCC2)N(C(=O)c2sc(C)nc2C)c2ccccc2C)cc1", "note": "(stereo not drawn)", "Potency": "inconclusive: 29.1 µM [inhibitor, single point]"}, {"smiles": "Cc1c(C(=O)Nc2ccccc2C(=O)N2CCOCC2)cccc1[N+](=O)[O-]", "Potency": "inconclusive: 15.8 µM [activator, single point]"}, {"smiles": "CCCC12CN3CCN(CC(C3)/C1=N\\NC(=O)c1ccc(F)cc1)C2", "Potency": "inconclusive: 11.2 µM [activator, partial curve, poor fit]"}, {"smiles": "Cc1ccc(OCC(=O)NNC(=O)CCc2ccccc2)cc1", "activity change, negative = inhibition": "inactive: -7.45%"}, {"smiles": "CCOC(=O)c1c(NC(=O)CSc2cccc[n+]2[O-])sc(C(=O)Nc2ccccc2)c1C", "Potency": "inconclusive: 6.31 µM [activator, single point]"}, {"smiles": "COc1ccc(NC(=O)NC2CC3CCCC(C2)N3Cc2ccccc2)cc1", "note": "(stereo not drawn)", "Potency": "inconclusive: 1.83 µM [inhibitor, partial curve, poor fit]"}, {"smiles": "O=C(CCn1cnnn1)Nc1ccccc1F", "activity change, negative = inhibition": "inactive: 10.2%"}, {"smiles": "CCCCOc1ccc(C2=NC(c3cccs3)=Nc3ccc(OC)cc3N2)cc1", "Potency": "inconclusive: 7.94 µM [inhibitor, partial curve, poor fit]"}, {"smiles": "CC(=O)NCCc1nc2cc(NC(=O)c3ccc([N+](=O)[O-])cc3)ccc2n1C", "Potency": "inconclusive: 12.6 µM [activator, partial curve, poor fit]"}, {"smiles": "Cc1cc(NC2CCCCC2)nc(-c2ccccc2O)n1", "Potency": "inconclusive: 35.5 µM [inhibitor, single point]"}, {"smiles": "O=C(c1ccccc1)c1c[nH]c2cc3c(cc2c1=O)OCCO3", "Potency": "inconclusive: 23.1 µM [activator, single point]"}, {"smiles": "COc1ccc(C(=O)NCC(=O)N2CCN(C(=O)c3ccco3)CC2)cc1OC", "Potency": "inconclusive: 8.91 µM [activator, partial curve]"}, {"smiles": "N#CC1(Cc2ccccc2Cl)c2ccccc2C=CN1C(=O)c1ccccc1", "note": "(stereo not drawn)", "activity change, negative = inhibition": "inactive: -22.1%"}, {"smiles": "O=c1cc(CN2CCCCC2)c2ccccc2o1", "Potency": "inconclusive: 15.8 µM [activator, partial curve]"}, {"smiles": "CCc1ccc(OCc2ccc(C(=O)NCc3ccccn3)o2)cc1", "Potency": "inconclusive: 35.5 µM [activator, single point]"}, {"smiles": "O=C1CC(C(=O)N2CCCc3ccccc32)CN1c1ccc(Cl)cc1", "note": "(stereo not drawn)", "activity change, negative = inhibition": "inactive: -19.7% [at 46.1 µM]"}, {"smiles": "COCC=CC1=CC2=CC(=O)C(C)(OC(=O)c3cnc4ccccc4n3)C(=O)C2=CN1CCCCO", "note": "(stereo not drawn)", "Potency": "inconclusive: 1.88 µM [activator, single point]"}, {"smiles": "O=C(CSc1nnc(-c2ccccc2)n1-c1ccc(Cl)cc1)N/N=C/c1ccco1", "Potency": "inconclusive: 1.26 µM [activator, single point]"}, {"smiles": "O=C(Nc1ccc(S(=O)(=O)C(F)F)cc1)c1ccc2c(=O)n3c(nc2c1)CCC3", "activity change, negative = inhibition": "inactive: -0.897%"}, {"smiles": "CCc1nnc2n1N=C(c1ccc(-c3ccc(Cl)cc3Cl)o1)CS2", "activity change, negative = inhibition": "inactive: 0.453%"}, {"smiles": "O=C(CN1CCCCC1)N1c2ccccc2CCc2ccccc21", "Potency": "inconclusive: 7.08 µM [inhibitor, partial curve, poor fit]"}, {"smiles": "CCOC(=O)c1c(CN2CCN(CC#N)CC2)n(C)c2cc(Br)c(OC)cc12", "Potency": "inconclusive: 35.5 µM [inhibitor, single point]"}, {"smiles": "CCCCOc1cccc(C(=O)NC(=S)Nc2cccc(NC(=O)c3ccccc3Cl)c2)c1", "Potency": "inconclusive: 1.26 µM [activator, single point]"}, {"smiles": "COc1ccc(CNC(=O)Cn2c(=O)oc3ccccc32)cc1OC", "activity change, negative = inhibition": "inactive: 3.57%"}, {"smiles": "COc1cc2[nH]c(=O)n(Cc3ccc(C(=O)NCCCN4CCC(C)CC4)cc3)c(=O)c2cc1OC", "Potency": "inconclusive: 14.6 µM [inhibitor, single point]"}, {"smiles": "CC(=NNC(=S)N1CC2CCC(CC2)C1)c1cccc(C)n1", "Potency": "inconclusive: 0.1 µM [inhibitor, full curve, poor fit]"}, {"smiles": "CCC1CCc2nc3sc(C(=O)Nc4cccc(F)c4)c(N)c3cc2C1", "note": "(stereo not drawn)", "activity change, negative = inhibition": "inactive: 5.66% [at 46.1 µM]"}, {"smiles": "COCCNC(=S)Nc1ccc2nc(N3CCCC3)cc(C)c2c1", "Potency": "inconclusive: 8.91 µM [inhibitor, single point]"}, {"smiles": "CCN(CC)c1ccc(NC(=O)CSc2n[nH]c(-c3ccco3)n2)cc1", "Potency": "inconclusive: 1.26 µM [inhibitor, single point]"}, {"smiles": "COc1ccccc1NCc1ccc([N+](=O)[O-])s1", "activity change, negative = inhibition": "inactive: 5.98%"}, {"smiles": "Cc1ccc(NC(=S)NCc2ccc3c(c2)cc(C)n3C)c(C)c1", "activity change, negative = inhibition": "inactive: -22.1%"}, {"smiles": "CC(C)C(C(=O)NC1CCCC1)N(CC1CCCO1)C(=O)CNS(=O)(=O)c1ccc(F)cc1", "note": "(stereo not drawn)", "activity change, negative = inhibition": "inactive: 2.37% [at 46.1 µM]"}, {"smiles": "CCC(=O)Nc1ccc(C(=O)CSc2nnc(-c3ccccc3F)n2C2CC2)cc1", "Potency": "inconclusive: 1.26 µM [activator, single point]"}, {"smiles": "CCOC(=O)Cc1csc(NC(=O)/C=C/c2ccc(OC)cc2)n1", "Potency": "inconclusive: 3.98 µM [inhibitor, partial curve, poor fit]"}, {"smiles": "COc1ccc(-c2cc(C(=O)N3CCN(C(c4ccccc4)c4ccccc4)CC3)no2)cc1", "Potency": "inconclusive: 23.1 µM [inhibitor, partial curve]"}]}]}
